Laboratory results: patent EP1094724B1, “USE OF A PHENOL OXIDISING ENZYME IN THE TREATMENT OF TOBACCO” (priority 1998, dated 2000)
For at least one compound, name, drawing or mass did not settle the structure.

Assays:
[1] = system: Myceliopthora thermophila laccase (MtL); assay: Laccase MtL treatment of tobacco extract, HPLC analysis of phenolic compounds (peak area); assay type: biochemical; settings: for Remaining content (% remaining) (peak area relative to the content in the extract): before drying
Description: (§1) The content of phenolic compounds is analysed by HPLC according to the procedure described below: • Liquid chromatographic system: E.g. Shimadzu SCL-6B System Controller, and two LC-6A Liquid Chromatograph (pumps) or Waters model 600 E • Injector: Shimadzu SIL 6B Autoinjector or Waters 715 Ultra Wisp. UV detector: Shimadzu SPD-6A Photodiode Array UV-VIS detector or Waters Model 481 • Software: CLASS LC10 / CLASS-MXA or Maxima 820 • Column: Supelcosil™ LC-18 25 cm x 4.6 mm (Supelco, #5-8298) or µ Bondapack C198 stainless steel column, 30 cm x 4 mm i.d., 10 µm particle size. • Guard column: none or Guard-Pak from Waters packed with the same material. • Temperature: Ambient • Mobile phase flow: 1.3 ml/min • Injection volume: 20µl • Wavelength: 350 nm • Eluent: Binary gradient (linear) mixture of A: KH2PO4 (28.4 g in 2000 ml de-mineralised water) and B: methanol (please see table 1 and figure 1). The eluent is filtered through a 0.45 µm filter and degassed before use.
(§2) Prior to HPLC analysis, the samples were filtered through a 0.45 µm filter or smaller, e.g. a sterile Sartorius Minisart 0.45 µm filter (#16555) or a Millipore Millex-GS 0.22 µm (#SBGS 0 25 SB) to remove the haze/precipitate normally formed during enzyme treatment. Normally, no dilution of the extract/sample was made before HPLC analysis.
For qualitative and semi-quantitative measurements, each of the standards was dissolved in 96% ethanol, and then mixed in a ratio and at a concentration which was within the range in the tobacco extract. For semi-quantification of the phenolic compounds in the tobacco extract, and as a measure of development in concentration of the various compounds contained in the extract, decrease in peak area relative to the peak area before addition of enzyme was used. As a measure of overall efficiency of the process, degree of reduction in total peak area of all peaks (not only the major ones) in the HPLC chromatogram with retention time Rt>3 min was used (named: "All peaks").
Unless otherwise indicated, the tobacco was extracted at a laboratory scale with water according to the following procedure: 1000 ml demineralised water is heated to 45°C. 30 g tobacco (approx. 25 g d.m.) is added and the mixture stirred by a magnetic bar and occasionally with a stick. After 15 minutes the tobacco residue is separated from the tobacco extract by vacuum filtration (Whatman glass micro fibre GF/F 11 cm). The filtered extract is then vacuum filtered at least once more or until it is completely clear. Yield was around 900 ml tobacco extract. […] No buffer was thus included in any of the trials. D.m. content of the extract was approximately 2.1%.
Tobacco extract (typically 50-100 ml) was poured into a glass beaker and a magnetic bar was added. No pH adjustments were made, and no buffer was added. The tobacco extract was heated to and controlled at 55°C during the entire enzyme treatment by means of a heating plate and a thermostat. Intensive submerse aeration was applied by blowing atmospheric air into the extract by means of a metal sinter (metal suction filter normally used for HPLC). The enzyme in question (TvL or PpL) was added to the desired concentration. Shortly after addition of laccase, the colour of the tobacco extract turned dark brown to black, and with time the liquor became turbid and a precipitate formed. The liquor was sampled with intervals for HPLC analysis.
It is obvious, that MtL can also be used to remove the phenolic compounds. It is evident, that using a dosage of MtL of approximately 0.63 µg/ml, longer processing time is needed compared to using a dosage of 6.3 µg/ml to obtain the same degree of reduction of the phenolic compounds, and that almost complete removal can be obtained with a dosage of approximately 0.63 µg/ml.
Enzyme treatment: MtL enzyme was added at various concentrations in the range 2.5 µg/ml - 6.3 µg/ml. A fixed processing time of 20 minutes was used. […]

[2] = system: Myceliopthora thermophila laccase (MtL); assay: MtL treatment of tobacco extract, quantitative HPLC of chlorogenic acid, rutin and scopoletin; assay type: biochemical; settings: detection limit CA 2.43, R 1.55, S 0.50 µg/ml
Description: as §1, §2
For quantitative measurements the following standards were made in the extracting solution: Chlorogenic acid: 20 mg/ml; Scopoletin: 1 mg/ml; Rutin: 0.75 mg/ml.
The mixture was intensely aerated during the reaction time.
"Raw tobacco" was extracted according to the procedure described in Example 8. […] After enzyme treatment, bentonite was added at a concentration of 1 g/L at the temperature of the extract after the laccase treatment (50°C) for 10 minutes. The slurry was clarified at a flow rate of 1 L/min using a continuous centrifuge. The enzyme treated and clarified extract was then concentrated 40 fold by means of reverse osmosis and evaporation. The concentrate was then recombined with the "tobacco residue" by spraying back the extract onto the tobacco residue, and finally dried, resulting in "recombined tobacco material".
Samples of tobacco before and after extraction and recombination with the tobacco extract was analysed for nicotine, reducing sugars, total sugars by means of an Auto Analyzer according to the method previously described, and analysed for chlorogenic acid, rutin, and scopoletin by means of HPLC according the method previously described. The tobacco extract before and after MtL and bentonite treatment was analysed for chlorogenic acid, rutin, and scopoletin by means of HPLC according the method previously described.

For `C[C@@H]1O[C@@H](OC[C@H]2O[C@@H](Oc3c(-c4ccc(O)c(O)c4)oc4cc(O)cc(O)c4c3=O)[C@H](O)[C@@H](O)[C@@H]2O)[C@H](O)[C@H](O)[C@H]1O` [R, rutin], the “Residual amount (% remaining) (peak area)” value ([1]; 0 % pO2, 3.8 µg/ml MtL for 20 minutes at pH 5.4 and 55°C) was 100%, the “Residual amount (% remaining) (peak area)” value ([1]; 2.5 µg MtL /ml, 20 minutes at pH 5.4 and 55°C, intensive submerse aeration) was 5% and the “Residual amount (% remaining) (peak area)” value ([1]; 3.8 µg MtL /ml, 20 minutes at pH 5.4 and 55°C, intensive submerse aeration) was 0%. For the same molecule, the “Residual amount (% remaining) (peak area)” value ([1]; 6.3 µg MtL /ml, 20 minutes at pH 5.4 and 55°C, intensive submerse aeration) was 0%, the “Residual amount (% remaining) (peak area)” value ([1]; 30 % pO2, 3.8 µg/ml MtL for 20 minutes at pH 5.4 and 55°C) was 17% and the “Residual amount (% remaining) (peak area)” value ([1]; 50 % pO2, 3.8 µg/ml MtL for 20 minutes at pH 5.4 and 55°C) was 1%. The “Residual amount (% remaining) (peak area)” value ([1]; 90 % pO2, 3.8 µg/ml MtL for 20 minutes at pH 5.4 and 55°C) was 0%, the “% Remaining (peak area) after various treatment times” value (“% Remaining (peak area)” for short) ([1]; 10 min, approx. 6.3 µg/ml MtL at pH 5.4 and 55°C, intensive submerse aeration) was 0% and the “% Remaining (peak area)” value ([1]; 20 min, approx. 6.3 µg/ml MtL at pH 5.4 and 55°C, intensive submerse aeration) was 0%. For the same molecule, the “% Remaining (peak area)” value ([1]; 67 min, approx. 0.63 µg/ml MtL at pH 5.4 and 55°C, intensive submerse aeration) was 24%, the “% Remaining (peak area)” value ([1]; 150 min, approx. 0.63 µg/ml MtL at pH 5.4 and 55°C, intensive submerse aeration) was 0% and the “Remaining content (% remaining) (peak area relative to the content in the extract)” value ([1]; Sample 4 enzyme treated extract after separation from precipitate, approximately 7.5 µg/ml MtL, 30 minutes, 53-56°C, pH 5.5) was 0%. For the same molecule, the “Remaining content (% remaining) (peak area relative to the content in the extract)” value ([1]; Sample 6 enzyme and bentonite treated extract separated from precipitate and bentonite, approximately 7.5 µg/ml MtL 30 minutes, then bentonite 15 minutes at 50-55°C) was 0%, the “Content in tobacco extract during MtL treatment” value ([2]; 5 min, 52.0 °C, 4.1 µg/ml MtL, 3.0 kg/100 litre scale) was 0.0198 mg/mL and the “Content in tobacco extract during MtL treatment” value ([2]; 5 minutes, 56.2 °C, MtL, 6.0 kg/200 litre scale) was 0.0109 mg/mL. For the same molecule, the “Content in tobacco extract during MtL treatment” value ([2]; 10 min, 50.3 °C, 4.1 µg/ml MtL, 3.0 kg/100 litre scale) was 0.0020 mg/mL, the “Content in tobacco extract during MtL treatment” value ([2]; 15 min, 48.8 °C, 4.1 µg/ml MtL, 3.0 kg/100 litre scale) was “BDL” and the “Content in tobacco extract during MtL treatment” value ([2]; 15 minutes, 55.2 °C, MtL, 6.0 kg/200 litre scale) was “BDL”. The “Content in tobacco extract during MtL treatment” value ([2]; 20 minutes, 54.5 °C, MtL, 6.0 kg/200 litre scale) was “BDL”, the “Content in tobacco extract during MtL treatment” value ([2]; 30 min, 45.0 °C, 4.1 µg/ml MtL, 3.0 kg/100 litre scale) was “BDL” and the “Content in tobacco extract during MtL treatment” value ([2]; 30 minutes, 53.5 °C, MtL, 6.0 kg/200 litre scale) was “BDL”. For the same molecule, the “Content in tobacco extract during MtL treatment” value ([2]; 45 min, 41.9 °C, 4.1 µg/ml MtL, 3.0 kg/100 litre scale) was “BDL”, the “Content in tobacco extract during MtL treatment” value ([2]; 45 minutes, 52.2 °C, MtL, 6.0 kg/200 litre scale) was “BDL” and the “Content in tobacco extract during MtL treatment” value ([2]; 60 min, 39.1 °C, 4.1 µg/ml MtL, 3.0 kg/100 litre scale) was “BDL”. The “Content in tobacco extract during MtL treatment” value ([2]; 60 minutes, 51.0 °C, MtL, 6.0 kg/200 litre scale) was “BDL”, the “phenolic compound content of tobacco extract” value ([2]; Extract after MtL treatment, 4.1 µg/ml MtL, 20 minutes at 55°C, intense aeration) was 0.005 mg/mL and the “phenolic compound content of tobacco extract” value ([2]; Extract after MtL- and bentonite treatment and separation by centrifugation, 4.1 µg/ml MtL 20 minutes at 55°C, bentonite 1 g/L 10 minutes at 50°C) was “BDL”.
